Assay results taken from publication PMC7819943, “Rice protein-binding microarrays: a tool to detect cis-acting elements near promoter regions in rice”.
The other results are listed elsewhere or left out.

Sequences of proteins named here, by UniProt entry; tags and fusion partners are left off.
UniProt Q0JBA9, entry or part of it: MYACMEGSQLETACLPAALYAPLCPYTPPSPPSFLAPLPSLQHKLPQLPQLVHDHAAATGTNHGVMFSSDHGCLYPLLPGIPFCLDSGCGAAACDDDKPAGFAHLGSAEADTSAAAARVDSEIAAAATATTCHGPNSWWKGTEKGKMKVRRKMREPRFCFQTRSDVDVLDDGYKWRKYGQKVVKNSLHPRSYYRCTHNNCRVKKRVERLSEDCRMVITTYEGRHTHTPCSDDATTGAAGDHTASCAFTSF

Each sequence was assayed against OsWRKY34 (Oryza sativa, UniProt Q0JBA9 1-250) (assay: protein-binding microarray (RPBM); PBS, 2% BSA, 51.3 ng/ul salmon testes DNA, 50 uM zinc acetate, 200 nM TF, 25 C, 1 h; high values mean tight binding). Details: protein: recombinant; tags: N-terminal polyhistidine and DsRed monomer fusion (pET32a); label: CyDye5-dUTP incorporated in the synthesized complementary strand; 3' TTTTT single-stranded linker to array surface; dsDNA, one strand shown.
How it was run: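 A custom Agilent array was converted to double-stranded form by primer extension with Cy5-dUTP and blocked with 2% BSA. Protein at 200 nM in PBS with 2% BSA, salmon testes DNA and 50 µM zinc acetate was applied for 1 h at 25 °C, followed by washing. The proteins were polyhistidine–DsRed N-terminal fusions of transcription factors, expressed in E. coli BL21-CodonPlus and Ni–NTA-purified. The binding signal is per-feature fluorescence intensity (arbitrary units) from an Axon 4000B scanner.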

Row | Sequence | binding signal
1 | GGTCTCCACGCCTACGCATCCACGTCTCCAGCCAGGTCCACGGAGTCACCTAGTGCAG | 10200 fluorescence intensity (a.u.)
2 | AACTGATGAATTTGTCTTTTCCGTTTAAACTTTGACCACCCGGAGTCACCTAGTGCAG | 8920 fluorescence intensity (a.u.)
3 | CAGCCGGTGTTTTTATCCATTTTGCTGGGAGCAACCATGCCGGAGTCACCTAGTGCAG | 8640 fluorescence intensity (a.u.)
4 | TCTTGTGCGCCACTCCTACTTATCCGTTTCAAACACACACCGGAGTCACCTAGTGCAG | 10800 fluorescence intensity (a.u.)
5 | ACCTCCATTACACATTGTAAGTCATTTTGTCTTTTTCTCTCGGAGTCACCTAGTGCAG | 8680 fluorescence intensity (a.u.)
6 | CCGCGCGTGATGCGCCTCCCACCACCACCACCAGCGCGCGCGGAGTCACCTAGTGCAG | 8370 fluorescence intensity (a.u.)
7 | GCATCTGATCGATCTCCCGTTACTATCTGCCCGCCTATTACGGAGTCACCTAGTGCAG | 12300 fluorescence intensity (a.u.)
8 | CTACTACTCTTTTCTCAGAGCTAGTGAGGGGCGGGCGGGCCGGAGTCACCTAGTGCAG | 17500 fluorescence intensity (a.u.)
9 | GTTCGTTGGGCTAGCTTGTGTGCTAGATCTGTTTCTACTTCGGAGTCACCTAGTGCAG | 8080 fluorescence intensity (a.u.)
10 | ACGGAGGGAGTAGTAACTTTGCCTTGATCCTACATGAACTCGGAGTCACCTAGTGCAG | 8890 fluorescence intensity (a.u.)
11 | TACACACGTACACTGTACCCTACCCTTATGAGCAACTCCACGGAGTCACCTAGTGCAG | 8600 fluorescence intensity (a.u.)
12 | GAAATACGGCATGCATGTTGACCGGAAGGCATACACATACCGGAGTCACCTAGTGCAG | 8570 fluorescence intensity (a.u.)
13 | TCTTCTTCCCCGCCGCGACCCCGCATGCCGCGCGCCACCACGGAGTCACCTAGTGCAG | 8310 fluorescence intensity (a.u.)
14 | TCTCGCGCGCGACCGTTGCGCCATTTTTTTTCTTTTACCGCGGAGTCACCTAGTGCAG | 9880 fluorescence intensity (a.u.)
15 | ATTTTTTTGTGAATTTGGTCAAATTTTATTCAAATTCATTCGGAGTCACCTAGTGCAG | 8280 fluorescence intensity (a.u.)
16 | AATTTGTAGTTATACCTAATCTATTTTCACCATATGTGCACGGAGTCACCTAGTGCAG | 8340 fluorescence intensity (a.u.)
17 | CTTCCCATATACTCTTGTGACCAAACCTTTTCGACCAATACGGAGTCACCTAGTGCAG | 11800 fluorescence intensity (a.u.)
18 | AGTCGTCGTCTCTCAGTATTGTCAATTCTTCTGCTAGCTGCGGAGTCACCTAGTGCAG | 9430 fluorescence intensity (a.u.)
19 | TCCTTTTGTTTTTCATTTTATACAGTTGTCCTAGTTCACGCGGAGTCACCTAGTGCAG | 8500 fluorescence intensity (a.u.)
20 | TATTTTTCAGCTCACCTCTTCTTTTTTTTTCGTACACATGCGGAGTCACCTAGTGCAG | 10700 fluorescence intensity (a.u.)
21 | TTTTCTGAAACAGAGACTGCTAATACCTTCCCCGGTTTATCGGAGTCACCTAGTGCAG | 8840 fluorescence intensity (a.u.)
22 | CAAAAGACGACGCACTCCCACTCTACTATATATTCTGGCGCGGAGTCACCTAGTGCAG | 9200 fluorescence intensity (a.u.)
23 | ATCTGTTTTGGCACAACTTCATTTTTCCTTTTTTTTTTTTCGGAGTCACCTAGTGCAG | 10100 fluorescence intensity (a.u.)

Some of the entries above, reformatted:
Row	Sequence	binding signal
13	TCTTCTTCCCCGCCGCGACCCCGCATGCCGCGCGCCACCACGGAGTCACCTAGTGCAG	8310 fluorescence intensity (a.u.)
21	TTTTCTGAAACAGAGACTGCTAATACCTTCCCCGGTTTATCGGAGTCACCTAGTGCAG	8840 fluorescence intensity (a.u.)
